Data as given in PubChem BioAssay AID1259254 (NCATS, 2017).
Here is one part, drawn at random, of about 59,000 reagents. About 1,550 of all reagents (2.6%) count as active. 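G2 share is only a proxy for re-replication; each gene was hit by three separate siRNAs, and active genes were retested.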 Not all columns of the deposit are shown. No sequences are given here. Not stated in the record: the amount of reagent.

Screen: 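Gene knock-downs that lead to re-replication, shown by excess G2 DNA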 (primary screen)
Cell system: human HCT116 colorectal cancer cells
Reagents: single siRNA against human genes
Timing: 3 days
Read-out: 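Imaged Hoechst DNA stain sorts each cell into a cycle phase by DNA amount; per plate, G2 fraction set to 0% for non-targeting and 100% for GMNN siRNA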
Direction: G2 robust z-score: higher = more G2 cells, more excess DNA replication
Call rule: 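An siRNA counts as active if its G2 robust z-score lies at least 5 MADs above the screen median; here such calls match roughly 38% of GMNN control or more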

HMMR (hyaluronan mediated motility receptor) [SID160775072] — G2 robust z-score = 1.2; activity call = inactive
HMMR (hyaluronan mediated motility receptor) [SID160775073] — G2 robust z-score = 0.374; activity call = inactive
HMMR (hyaluronan mediated motility receptor) [SID160775074] — G2 robust z-score = 3.4; activity call = inactive
KAT7 (lysine acetyltransferase 7) [SID160737838] — G2 robust z-score = 0.0735; activity call = inactive
KAT7 (lysine acetyltransferase 7) [SID160737941] — G2 robust z-score = -0.514; activity call = inactive
KAT7 (lysine acetyltransferase 7) [SID160738045] — G2 robust z-score = -0.0659; activity call = inactive
CEP76 (centrosomal protein 76) [SID160749854] — G2 robust z-score = -0.671; activity call = inactive
CEP76 (centrosomal protein 76) [SID160749855] — G2 robust z-score = -0.223; activity call = inactive
CEP76 (centrosomal protein 76) [SID160749856] — G2 robust z-score = 0.446; activity call = inactive
RTL6 (retrotransposon Gag like 6) [SID160751950] — G2 robust z-score = 1.94; activity call = inactive
RTL6 (retrotransposon Gag like 6) [SID160751951] — G2 robust z-score = -0.308; activity call = inactive
RTL6 (retrotransposon Gag like 6) [SID160751952] — G2 robust z-score = -0.842; activity call = inactive
ESS2 (ess-2 spliceosome associated protein) [SID160719734] — G2 robust z-score = -0.899; activity call = inactive
ESS2 (ess-2 spliceosome associated protein) [SID160719735] — G2 robust z-score = -0.139; activity call = inactive
ESS2 (ess-2 spliceosome associated protein) [SID160719737] — G2 robust z-score = 1.47; activity call = inactive
CREB3 (cAMP responsive element binding protein 3) [SID160728557] — G2 robust z-score = -0.335; activity call = inactive
CREB3 (cAMP responsive element binding protein 3) [SID160728558] — G2 robust z-score = 1.08; activity call = inactive
CREB3 (cAMP responsive element binding protein 3) [SID160730442] — G2 robust z-score = -0.474; activity call = inactive
XAB2 (XPA binding protein 2) [SID160745372] — G2 robust z-score = 3.46; activity call = inactive
XAB2 (XPA binding protein 2) [SID160745373] — G2 robust z-score = 0.856; activity call = inactive
XAB2 (XPA binding protein 2) [SID160745374] — G2 robust z-score = -1.19; activity call = inactive
PAOX (polyamine oxidase) [SID160760658] — G2 robust z-score = 0.623; activity call = inactive
PAOX (polyamine oxidase) [SID160760659] — G2 robust z-score = 1.13; activity call = inactive
PAOX (polyamine oxidase) [SID160760660] — G2 robust z-score = -0.26; activity call = inactive
HCRTR2 (hypocretin receptor 2) [SID160774885] — G2 robust z-score = -0.727; activity call = inactive
HCRTR2 (hypocretin receptor 2) [SID160774886] — G2 robust z-score = -0.418; activity call = inactive
HCRTR2 (hypocretin receptor 2) [SID160774887] — G2 robust z-score = -0.507; activity call = inactive
CLEC17A (C-type lectin domain containing 17A) [SID160765874] — G2 robust z-score = -1.16; activity call = inactive
CLEC17A (C-type lectin domain containing 17A) [SID160765875] — G2 robust z-score = 0.927; activity call = inactive
CLEC17A (C-type lectin domain containing 17A) [SID160765876] — G2 robust z-score = 0.321; activity call = inactive

Records above whose gene name begins with K or k (3):
KAT7 (lysine acetyltransferase 7) [SID160737838] — G2 robust z-score = 0.0735; activity call = inactive
KAT7 (lysine acetyltransferase 7) [SID160737941] — G2 robust z-score = -0.514; activity call = inactive
KAT7 (lysine acetyltransferase 7) [SID160738045] — G2 robust z-score = -0.0659; activity call = inactive
